No constants are given. Whether binding was seen depends on the method and setting. Some entries that bind do so weakly or less than the wild type. Tags and fused reporters may be left off the sequences shown.
Biological target: T1, recombinant EMB1579-6×His protein (Arabidopsis thaliana) (UniProt F4IS91)
T1 sequence: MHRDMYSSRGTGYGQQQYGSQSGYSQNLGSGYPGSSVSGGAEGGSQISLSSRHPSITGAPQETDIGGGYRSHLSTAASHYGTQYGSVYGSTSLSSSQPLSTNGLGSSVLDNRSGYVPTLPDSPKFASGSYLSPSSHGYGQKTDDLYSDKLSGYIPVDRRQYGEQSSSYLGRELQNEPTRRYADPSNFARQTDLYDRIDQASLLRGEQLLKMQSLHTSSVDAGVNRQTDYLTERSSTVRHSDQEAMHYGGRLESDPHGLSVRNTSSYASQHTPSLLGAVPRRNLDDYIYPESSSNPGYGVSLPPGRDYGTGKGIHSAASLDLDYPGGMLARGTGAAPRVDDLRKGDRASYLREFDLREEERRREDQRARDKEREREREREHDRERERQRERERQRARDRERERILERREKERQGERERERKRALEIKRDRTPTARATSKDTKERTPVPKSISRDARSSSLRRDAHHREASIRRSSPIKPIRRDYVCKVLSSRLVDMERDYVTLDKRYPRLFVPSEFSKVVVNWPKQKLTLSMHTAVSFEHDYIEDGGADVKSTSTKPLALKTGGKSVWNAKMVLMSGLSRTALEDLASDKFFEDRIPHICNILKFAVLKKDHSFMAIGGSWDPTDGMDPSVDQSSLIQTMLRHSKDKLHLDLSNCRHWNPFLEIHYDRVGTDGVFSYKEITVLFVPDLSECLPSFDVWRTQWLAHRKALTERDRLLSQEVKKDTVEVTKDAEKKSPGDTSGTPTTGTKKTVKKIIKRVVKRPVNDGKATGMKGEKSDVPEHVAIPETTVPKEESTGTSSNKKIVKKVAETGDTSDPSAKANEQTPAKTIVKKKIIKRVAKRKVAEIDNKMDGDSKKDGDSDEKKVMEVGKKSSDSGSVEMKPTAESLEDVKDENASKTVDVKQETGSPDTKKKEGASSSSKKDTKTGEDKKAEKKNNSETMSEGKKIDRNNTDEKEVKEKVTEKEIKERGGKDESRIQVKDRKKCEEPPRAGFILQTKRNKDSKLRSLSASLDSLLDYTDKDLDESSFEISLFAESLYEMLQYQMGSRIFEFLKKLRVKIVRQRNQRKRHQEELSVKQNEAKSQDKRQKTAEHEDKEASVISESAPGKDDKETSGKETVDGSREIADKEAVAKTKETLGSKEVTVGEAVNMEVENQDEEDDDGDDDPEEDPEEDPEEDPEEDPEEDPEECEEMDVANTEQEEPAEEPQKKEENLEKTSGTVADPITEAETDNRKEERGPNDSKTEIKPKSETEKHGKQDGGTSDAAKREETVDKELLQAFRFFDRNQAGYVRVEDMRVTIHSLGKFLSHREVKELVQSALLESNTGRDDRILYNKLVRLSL
Assay: recruitment into condensates from a root extract (confocal fluorescence microscopy); EMB1579 dialysed 1 hour with total protein extract of Arabidopsis roots expressing RFP-MSI4 in P buffer (25 mM Tris-HCl pH 8.0, 100 mM KCl, 2 mM DTT, 100 mg/ml PEG 3350); extract without EMB1579 as control; only the target purified

binding: binds
B1: red fluorescent protein (RFP)-MSI4 (protein, UniProt O22607 1-507)
chain: MESDEAAAVSPQATTPSGGTGASGPKKRGRKPKTKEDSQTPSSQQQSDVKMKESGKKTQQSPSVDEKYSQWKGLVPILYDWLANHNLVWPSLSCRWGPQLEQATYKNRQRLYLSEQTDGSVPNTLVIANCEVVKPRVAAAEHISQFNEEARSPFVKKYKTIIHPGEVNRIRELPQNSKIVATHTDSPDVLIWDVETQPNRHAVLGAANSRPDLILTGHQDNAEFALAMCPTEPFVLSGGKDKSVVLWSIQDHITTIGTDSKSSGSIIKQTGEGTDKNESPTVGPRGVYHGHEDTVEDVAFSPTSAQEFCSVGDDSCLILWDARTGTNPVTKVEKAHDADLHCVDWNPHDDNLILTGSADNTVRLFDRRKLTANGVGSPIYKFEGHKAAVLCVQWSPDKSSVFGSSAEDGLLNIWDYDRVSKKSDRAAKSPAGLFFQHAGHRDKVVDFHWNASDPWTIVSVSDDCETTGGGGTLQIWRMSDLIYRPEEEVVAELEKFKSHVMTCASKP

— paper PMC7413564, “Phase separation of Arabidopsis EMB1579 controls transcription, mRNA splicing, and development” (PLoS Biology, 2020)
